# Measured values taken from patent US20230220057A1 (STAIDSON BEIJING BIOPHARMACEUTICALS, published 2023).
# Sequences of proteins named here, by UniProt entry; tags and fusion partners are left off. A change or cut given only in a name is not applied to a line headed by its entry.
# UniProt P01138: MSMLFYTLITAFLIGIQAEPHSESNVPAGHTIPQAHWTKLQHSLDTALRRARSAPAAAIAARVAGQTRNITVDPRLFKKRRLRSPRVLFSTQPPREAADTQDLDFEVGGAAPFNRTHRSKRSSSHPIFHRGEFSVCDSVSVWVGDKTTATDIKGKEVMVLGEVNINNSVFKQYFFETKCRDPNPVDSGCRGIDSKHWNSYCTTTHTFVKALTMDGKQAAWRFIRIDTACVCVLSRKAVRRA
# These are yes or no findings as the source states them, for the method shown. Some results given as binding are weak or reduced against the parent protein; the word gives no strength.
# Target: recombinantly produced human-NGF (human, UniProt P01138 122-241, limits assumed)
# Test: NGF binding ELISA
row,Binder,binding
1,"Ab22 (antibody, human IgG1, V domains shown) VH: EVQLVQSGAEVKKPGATVKISCKVSGYSFITYWISWVQQAPGKGLEWMGAIDPSDSDARYSPSFQGRVTITADKSTDTAYMELSSLRSEDTAVYYCAKSDPGYSGYSLLYGFDSWGQGTLVTVSS VL: DIVMTQTPLSSPVTLGQPASISCRSSQSLVQRNGNTYLSWYQQRPGQPPRLLIYQVSNRYSGVPDRFSGSGAGTDFTLKISRVEAEDVGVYYCGQGAHLPLTFGQGTKVEIK",binds
2,"Ab28 (antibody, human IgG1, V domains shown) VH: EVQLVQSGAEVKKPGATVKISCKVSGYSFITYWISWVQQAPGKGLEWMGAIDPSDSDARYSPSFQGRVTITADKSTDTAYMELSSLRSEDTAVYYCAKSDPGYSGYSLLYGFDSWGQGTLVTVSS VL: DIVMTQSPLSLPVTLGQPASISCRSSQSLVQRNGNTYLSWYQQRPGQSPRLLIYQVSNRYSGVPDRFSGSGSGTDFTLKISRVEAEDVGVYYCGQGAHLPLTFGQGTKVEIK",binds
3,"Ab27 (antibody, human IgG1, V domains shown) VH: EVQLVQSGAEVKKPGATVKISCKVSGYSFITYWISWVQQAPGKGLEWMGAIDPSDSDARYSPSFQGRVTITADKSTDTAYMELSSLRSEDTAVYYCAKSDPGYSGYSLLYGFDSWGQGTLVTVSS VL: DIVMTQSPLSLPVTLGQPASISCRSSQSLVQRNGNTYLSWFQQRPGQSPRLLIYQVSNRYSGVPDRFSGSGSGTDFTLKISRVEAEDVGVYYCGQGAHLPLTFGQGTKVEIK",binds
4,"Ab26 (antibody, human IgG1, V domains shown) VH: EVQLVQSGAEVKKPGATVKISCKVSGYSFITYWISWVQQAPGKGLEWMGAIDPSDSDARYSPSFQGRVTITADKSTDTAYMELSSLRSEDTAVYYCAKSDPGYSGYSLLYGFDSWGQGTLVTVSS VL: DVVMTQSPLSLPVTLGQPASISCRSSQSLVQRNGNTYLSWFQQRPGQPPRLLIYQVSNRYSGVPDRFSGSGSGTDFTLKISRVEAEDVGVYYCGQGAHLPLTFGQGTKVEIK",binds
5,"Ab25 (antibody, human IgG1, V domains shown) VH: EVQLVQSGAEVKKPGATVKISCKVSGYSFITYWISWVQQAPGKGLEWMGAIDPSDSDARYSPSFQGRVTITADKSTDTAYMELSSLRSEDTAVYYCAKSDPGYSGYSLLYGFDSWGQGTLVTVSS VL: DVVMTQSPLSLPVTLGQPASISCRSSQSLVQRNGNTYLSWYQQRPGQPPRLLIYQVSNRYSGVPDRFSGSGSGTDFTLKISRVEAEDVGVYYCGQGAHLPLTFGQGTKVEIK",binds
6,"Ab29 (antibody, human IgG1, V domains shown) VH: EVQLVQSGAEVKKPGATVKISCKVSGYSFITYWISWVQQAPGKGLEWMGAIDPSDSDARYSPSFQGRVTITADKSTDTAYMELSSLRSEDTAVYYCAKSDPGYSGYSLLYGFDSWGQGTLVTVSS VL: DIVMTQSPLSLPVTLGQPASISCRSSQSLVQRNGNTYLSWYQQRPGQPPRLLIYQVSNRYSGVPDRFSGSGSGTDFTLKISRVEAEDVGVYYCGQGAHLPLTFGQGTKVEIK",binds
7,"Ab24 (antibody, human IgG1, V domains shown) VH: EVQLVQSGAEVKKPGATVKISCKVSGYSFITYWISWVQQAPGKGLEWMGAIDPSDSDARYSPSFQGRVTITADKSTDTAYMELSSLRSEDTAVYYCAKSDPGYSGYSLLYGFDSWGQGTLVTVSS VL: DVVMTQSPLSLPVTLGQPASISCRSSQSLVQRNGNTYLSWYQQRPGQSPRLLIYQVSNRYSGVPDRFSGSGSGTDFTLKISRVEAEDVGVYYCGQGAHLPLTFGQGTKVEIK",binds
8,"Ab23 (antibody, human IgG1, V domains shown) VH: EVQLVQSGAEVKKPGATVKISCKVSGYSFITYWISWVQQAPGKGLEWMGAIDPSDSDARYSPSFQGRVTITADKSTDTAYMELSSLRSEDTAVYYCAKSDPGYSGYSLLYGFDSWGQGTLVTVSS VL: DVVMTQSPLSLPVTLGQPASISCRSSQSLVQRNGNTYLSWFQQRPGQSPRLLIYQVSNRYSGVPDRFSGSGSGTDFTLKISRVEAEDVGVYYCGQGAHLPLTFGQGTKVEIK",binds

# Continued, values first:
row,binding,Binder
1,binds,"Ab35 (antibody, human IgG1, V domains shown) VH: EVQLVQSGAEVKKPGATVKISCKVSGYTFITYWISWVQQAPGKGLEWMGAIDPSDSDARYSPSFQGRVTITADKSTDTAYMELSSLRSEDTAVYYCAKSDPGYSGYSLLYGFDSWGQGTLVTVSS VL: DVVMTQSPLSLPVTLGQPASISCRSSQSLVQRNGNTYLSWYQQRPGQPPRLLIYQVSNRYSGVPDRFSGSGSGTDFTLKISRVEAEDVGVYYCGQGAHLPLTFGQGTKVEIK"
2,binds,"Ab30 (antibody, human IgG1, V domains shown) VH: EVQLVQSGAEVKKPGATVKISCKVSGYSFITYWISWVQQAPGKGLEWMGAIDPSDSDARYSPSFQGRVTITADKSTDTAYMELSSLRSEDTAVYYCAKSDPGYSGYSLLYGFDSWGQGTLVTVSS VL: DIVMTQSPLSLPVTLGQPASISCRSSQSLVQRNGNTYLSWFQQRPGQPPRLLIYQVSNRYSGVPDRFSGSGSGTDFTLKISRVEAEDVGVYYCGQGAHLPLTFGQGTKVEIK"
3,binds,"Ab38 (antibody, human IgG1, V domains shown) VH: EVQLVQSGAEVKKPGATVKISCKVSGYTFITYWISWVQQAPGKGLEWMGAIDPSDSDARYSPSFQGRVTITADKSTDTAYMELSSLRSEDTAVYYCAKSDPGYSGYSLLYGFDSWGQGTLVTVSS VL: DIVMTQSPLSLPVTLGQPASISCRSSQSLVQRNGNTYLSWYQQRPGQSPRLLIYQVSNRYSGVPDRFSGSGSGTDFTLKISRVEAEDVGVYYCGQGAHLPLTFGQGTKVEIK"
4,binds,"Ab32 (antibody, human IgG1, V domains shown) VH: EVQLVQSGAEVKKPGATVKISCKVSGYTFITYWISWVQQAPGKGLEWMGAIDPSDSDARYSPSFQGRVTITADKSTDTAYMELSSLRSEDTAVYYCAKSDPGYSGYSLLYGFDSWGQGTLVTVSS VL: DIVMTQTPLSSPVTLGQPASISCRSSQSLVQRNGNTYLSWYQQRPGQPPRLLIYQVSNRYSGVPDRFSGSGAGTDFTLKISRVEAEDVGVYYCGQGAHLPLTFGQGTKVEIK"
5,binds,"Ab31 (antibody, human IgG1, V domains shown) VH: EVQLVQSGAEVKKPGATVKISCKVSGYTFITYWISWVQQAPGKGLEWMGAIDPSDSDARYSPSFQGRVTITADKSTDTAYMELSSLRSEDTAVYYCAKSDPGYSGYSLLYGFDSWGQGTLVTVSS VL: DIVMTQTPLSSPVTLGQPASISCRSSQSLVQRNGNTYLSWLQQRPGQPPRLLIYQVSNRYSGVPDRFSGSGAGTDFTLKISRVEAEDVGVYYCGQGAHLPLTFGQGTKVEIK"
6,binds,"Ab33 (antibody, human IgG1, V domains shown) VH: EVQLVQSGAEVKKPGATVKISCKVSGYTFITYWISWVQQAPGKGLEWMGAIDPSDSDARYSPSFQGRVTITADKSTDTAYMELSSLRSEDTAVYYCAKSDPGYSGYSLLYGFDSWGQGTLVTVSS VL: DVVMTQSPLSLPVTLGQPASISCRSSQSLVQRNGNTYLSWFQQRPGQSPRLLIYQVSNRYSGVPDRFSGSGSGTDFTLKISRVEAEDVGVYYCGQGAHLPLTFGQGTKVEIK"
7,binds,"Ab34 (antibody, human IgG1, V domains shown) VH: EVQLVQSGAEVKKPGATVKISCKVSGYTFITYWISWVQQAPGKGLEWMGAIDPSDSDARYSPSFQGRVTITADKSTDTAYMELSSLRSEDTAVYYCAKSDPGYSGYSLLYGFDSWGQGTLVTVSS VL: DVVMTQSPLSLPVTLGQPASISCRSSQSLVQRNGNTYLSWYQQRPGQSPRLLIYQVSNRYSGVPDRFSGSGSGTDFTLKISRVEAEDVGVYYCGQGAHLPLTFGQGTKVEIK"
